This test deals with ACKR1-YFP (human) (UniProt Q16570). Briefly: FRET or BRET.

These are yes or no findings as the source states them, for the method shown. In cells and extracts the contact can be indirect. Some results given as binding are weak or reduced against the parent protein; the word gives no strength. Sequences can lack the tags named with a protein.

Our source for the binding values is article doi:10.1101/2021.02.08.430206 (bioRxiv, 2021).

B1: ACKR1-YFP (receptor, UniProt Q16570 1-336)
chain: MGNCLHRAELSPSTENSSQLDFEDVWNSSYGVNDSFPDGDYGANLEAAAPCHSCNLLDDSALPFFILTSVLGILASSTVLFMLFRPLFRWQLCPGWPVLAQLAVGSALFSIVVPVLAPGLGSTRSSALCSLGYCVWYGSAFAQALLLGCHASLGHRLGAGQVPGLTLGLTVGIWGVAALLTLPVTLASGASGGLCTLIYSTELKALQATHTVACLAIFVLLPLGLFGAKGLKKALGMGPGPWMNILWAWFIFWWPHGVVLGLDFLVRSKLLLLSTCLAQQALDLLLNLAEALAILHCVATPLLLALFCHQATRTLLPSLPLPEGWSSHLDTLGSKS
Turning to B1, the binding result is on record as “binds”.
